In the supplement of paper PMC10849652:
The list shows a part of the results.

Chains of the proteins cited; added tags and fusions are not shown. Lines headed by an entry give the natural chain unless they say otherwise; changes in a name come on top.
UniProt Q99447: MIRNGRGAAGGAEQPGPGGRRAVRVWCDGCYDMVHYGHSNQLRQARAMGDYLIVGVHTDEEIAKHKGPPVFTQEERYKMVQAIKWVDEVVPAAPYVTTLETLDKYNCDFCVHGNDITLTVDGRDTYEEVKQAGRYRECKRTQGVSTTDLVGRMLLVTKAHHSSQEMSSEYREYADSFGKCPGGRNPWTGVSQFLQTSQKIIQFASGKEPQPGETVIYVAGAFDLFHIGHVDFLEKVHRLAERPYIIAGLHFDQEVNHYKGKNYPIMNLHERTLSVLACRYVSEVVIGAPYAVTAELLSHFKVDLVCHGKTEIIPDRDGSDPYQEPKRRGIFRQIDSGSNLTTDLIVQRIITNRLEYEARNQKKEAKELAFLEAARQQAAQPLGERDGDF
UniProt Q9NQP4, whole entry, looked up: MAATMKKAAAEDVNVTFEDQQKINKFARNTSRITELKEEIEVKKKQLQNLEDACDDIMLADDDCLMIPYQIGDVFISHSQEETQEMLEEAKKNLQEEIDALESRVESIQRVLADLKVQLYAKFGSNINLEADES
UniProt O15212, whole entry, looked up: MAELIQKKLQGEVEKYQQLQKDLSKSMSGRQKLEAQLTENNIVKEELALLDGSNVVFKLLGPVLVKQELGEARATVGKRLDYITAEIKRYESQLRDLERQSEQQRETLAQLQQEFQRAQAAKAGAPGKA
UniProt O60925, whole entry, looked up: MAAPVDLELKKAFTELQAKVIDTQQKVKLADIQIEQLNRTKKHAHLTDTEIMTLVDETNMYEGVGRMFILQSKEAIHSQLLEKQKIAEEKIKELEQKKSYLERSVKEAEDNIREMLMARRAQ
UniProt Q32M88: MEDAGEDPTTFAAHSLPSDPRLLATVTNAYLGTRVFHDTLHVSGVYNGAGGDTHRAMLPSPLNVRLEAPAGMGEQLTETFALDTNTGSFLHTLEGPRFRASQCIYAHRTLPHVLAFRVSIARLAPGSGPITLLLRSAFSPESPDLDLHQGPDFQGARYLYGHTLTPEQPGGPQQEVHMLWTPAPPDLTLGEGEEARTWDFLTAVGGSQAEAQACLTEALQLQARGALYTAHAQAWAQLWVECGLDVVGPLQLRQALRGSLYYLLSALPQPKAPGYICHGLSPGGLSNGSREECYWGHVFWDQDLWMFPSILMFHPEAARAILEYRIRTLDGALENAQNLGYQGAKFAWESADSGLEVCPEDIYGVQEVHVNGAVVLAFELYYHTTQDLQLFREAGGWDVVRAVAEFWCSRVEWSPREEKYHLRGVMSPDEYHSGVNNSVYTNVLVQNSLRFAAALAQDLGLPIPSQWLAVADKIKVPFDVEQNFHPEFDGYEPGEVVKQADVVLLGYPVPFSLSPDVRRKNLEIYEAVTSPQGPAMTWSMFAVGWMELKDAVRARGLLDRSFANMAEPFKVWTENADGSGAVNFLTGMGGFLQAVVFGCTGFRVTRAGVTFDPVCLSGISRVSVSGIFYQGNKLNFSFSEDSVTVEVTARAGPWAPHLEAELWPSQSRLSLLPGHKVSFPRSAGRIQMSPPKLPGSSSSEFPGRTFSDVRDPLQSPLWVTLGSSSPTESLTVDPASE
UniProt P30086: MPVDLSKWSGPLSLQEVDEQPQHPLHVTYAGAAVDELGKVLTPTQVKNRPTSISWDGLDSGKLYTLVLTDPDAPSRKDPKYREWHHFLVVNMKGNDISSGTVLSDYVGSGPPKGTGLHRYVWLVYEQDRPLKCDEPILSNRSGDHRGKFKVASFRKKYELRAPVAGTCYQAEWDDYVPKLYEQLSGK
UniProt P57721, whole entry, looked up: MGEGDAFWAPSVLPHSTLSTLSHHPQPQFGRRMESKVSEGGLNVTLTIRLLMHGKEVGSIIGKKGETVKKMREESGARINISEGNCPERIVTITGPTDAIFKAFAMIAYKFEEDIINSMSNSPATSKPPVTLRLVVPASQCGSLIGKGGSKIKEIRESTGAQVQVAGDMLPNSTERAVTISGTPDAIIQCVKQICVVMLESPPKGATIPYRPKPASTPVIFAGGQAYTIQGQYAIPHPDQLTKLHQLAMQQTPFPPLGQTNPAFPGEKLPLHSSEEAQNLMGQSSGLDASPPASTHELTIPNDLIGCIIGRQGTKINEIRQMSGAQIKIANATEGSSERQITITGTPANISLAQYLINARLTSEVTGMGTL
UniProt Q8NEN9: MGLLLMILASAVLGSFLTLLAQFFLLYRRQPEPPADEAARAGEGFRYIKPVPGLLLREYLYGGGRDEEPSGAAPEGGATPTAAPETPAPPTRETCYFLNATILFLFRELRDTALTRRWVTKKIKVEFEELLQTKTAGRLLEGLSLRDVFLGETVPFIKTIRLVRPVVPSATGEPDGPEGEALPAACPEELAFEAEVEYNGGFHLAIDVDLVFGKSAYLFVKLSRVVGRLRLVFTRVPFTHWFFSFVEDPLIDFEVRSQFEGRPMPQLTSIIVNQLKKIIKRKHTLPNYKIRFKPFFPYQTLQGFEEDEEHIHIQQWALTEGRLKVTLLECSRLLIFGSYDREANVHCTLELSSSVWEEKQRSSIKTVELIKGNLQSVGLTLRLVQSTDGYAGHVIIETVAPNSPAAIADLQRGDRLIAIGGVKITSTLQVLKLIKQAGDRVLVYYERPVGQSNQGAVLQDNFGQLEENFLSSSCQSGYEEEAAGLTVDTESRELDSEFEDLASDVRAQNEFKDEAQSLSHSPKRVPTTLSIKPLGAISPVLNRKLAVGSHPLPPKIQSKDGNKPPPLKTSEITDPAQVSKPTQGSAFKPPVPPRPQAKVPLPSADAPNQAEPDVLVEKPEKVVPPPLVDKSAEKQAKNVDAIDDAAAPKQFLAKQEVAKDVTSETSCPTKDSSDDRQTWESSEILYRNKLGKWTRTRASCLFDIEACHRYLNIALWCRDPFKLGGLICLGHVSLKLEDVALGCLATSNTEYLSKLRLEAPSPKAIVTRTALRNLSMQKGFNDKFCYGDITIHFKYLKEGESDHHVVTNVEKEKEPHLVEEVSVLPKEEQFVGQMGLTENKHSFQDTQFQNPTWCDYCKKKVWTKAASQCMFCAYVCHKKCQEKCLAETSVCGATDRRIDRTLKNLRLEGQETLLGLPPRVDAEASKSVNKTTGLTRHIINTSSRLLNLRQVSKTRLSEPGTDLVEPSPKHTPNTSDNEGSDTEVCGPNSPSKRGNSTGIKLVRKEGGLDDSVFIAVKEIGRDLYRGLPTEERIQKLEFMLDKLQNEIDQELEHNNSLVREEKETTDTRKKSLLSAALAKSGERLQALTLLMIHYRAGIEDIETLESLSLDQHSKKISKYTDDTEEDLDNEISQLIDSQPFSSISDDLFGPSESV
UniProt P05166: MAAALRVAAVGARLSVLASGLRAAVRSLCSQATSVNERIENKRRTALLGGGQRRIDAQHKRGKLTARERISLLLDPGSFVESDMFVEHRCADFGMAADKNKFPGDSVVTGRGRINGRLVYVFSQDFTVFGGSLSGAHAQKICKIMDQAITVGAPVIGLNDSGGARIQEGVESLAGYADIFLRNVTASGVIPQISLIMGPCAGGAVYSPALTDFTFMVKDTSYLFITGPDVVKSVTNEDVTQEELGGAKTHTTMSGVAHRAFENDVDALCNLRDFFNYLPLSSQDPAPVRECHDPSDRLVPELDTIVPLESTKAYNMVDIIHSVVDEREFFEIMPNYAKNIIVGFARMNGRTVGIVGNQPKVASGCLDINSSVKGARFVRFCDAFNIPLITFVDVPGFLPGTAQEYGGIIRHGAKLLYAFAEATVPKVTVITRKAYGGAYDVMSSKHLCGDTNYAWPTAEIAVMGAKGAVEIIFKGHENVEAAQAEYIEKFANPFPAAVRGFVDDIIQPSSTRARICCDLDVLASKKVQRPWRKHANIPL
UniProt Q15366, whole entry, looked up: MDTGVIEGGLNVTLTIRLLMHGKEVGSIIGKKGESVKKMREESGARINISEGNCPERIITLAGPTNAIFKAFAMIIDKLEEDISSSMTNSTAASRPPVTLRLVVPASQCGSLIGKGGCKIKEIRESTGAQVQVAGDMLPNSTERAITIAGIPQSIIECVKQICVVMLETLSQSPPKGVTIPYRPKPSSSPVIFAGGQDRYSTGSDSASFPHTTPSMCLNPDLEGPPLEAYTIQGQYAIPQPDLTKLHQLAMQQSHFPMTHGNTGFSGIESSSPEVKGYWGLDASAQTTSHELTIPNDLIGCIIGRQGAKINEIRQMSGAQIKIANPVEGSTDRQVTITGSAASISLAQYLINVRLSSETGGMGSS
UniProt Q5JVF3: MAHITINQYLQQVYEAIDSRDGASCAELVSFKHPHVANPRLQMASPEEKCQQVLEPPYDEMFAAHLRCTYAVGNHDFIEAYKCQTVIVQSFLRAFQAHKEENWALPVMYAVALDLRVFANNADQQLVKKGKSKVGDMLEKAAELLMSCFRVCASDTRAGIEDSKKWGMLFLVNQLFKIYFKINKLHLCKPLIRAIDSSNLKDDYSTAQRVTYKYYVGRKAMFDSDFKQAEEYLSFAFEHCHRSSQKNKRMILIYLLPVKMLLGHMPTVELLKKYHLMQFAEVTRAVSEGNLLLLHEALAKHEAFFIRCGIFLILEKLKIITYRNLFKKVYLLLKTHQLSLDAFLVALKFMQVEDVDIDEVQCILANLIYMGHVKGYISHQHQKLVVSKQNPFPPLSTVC
UniProt P27815: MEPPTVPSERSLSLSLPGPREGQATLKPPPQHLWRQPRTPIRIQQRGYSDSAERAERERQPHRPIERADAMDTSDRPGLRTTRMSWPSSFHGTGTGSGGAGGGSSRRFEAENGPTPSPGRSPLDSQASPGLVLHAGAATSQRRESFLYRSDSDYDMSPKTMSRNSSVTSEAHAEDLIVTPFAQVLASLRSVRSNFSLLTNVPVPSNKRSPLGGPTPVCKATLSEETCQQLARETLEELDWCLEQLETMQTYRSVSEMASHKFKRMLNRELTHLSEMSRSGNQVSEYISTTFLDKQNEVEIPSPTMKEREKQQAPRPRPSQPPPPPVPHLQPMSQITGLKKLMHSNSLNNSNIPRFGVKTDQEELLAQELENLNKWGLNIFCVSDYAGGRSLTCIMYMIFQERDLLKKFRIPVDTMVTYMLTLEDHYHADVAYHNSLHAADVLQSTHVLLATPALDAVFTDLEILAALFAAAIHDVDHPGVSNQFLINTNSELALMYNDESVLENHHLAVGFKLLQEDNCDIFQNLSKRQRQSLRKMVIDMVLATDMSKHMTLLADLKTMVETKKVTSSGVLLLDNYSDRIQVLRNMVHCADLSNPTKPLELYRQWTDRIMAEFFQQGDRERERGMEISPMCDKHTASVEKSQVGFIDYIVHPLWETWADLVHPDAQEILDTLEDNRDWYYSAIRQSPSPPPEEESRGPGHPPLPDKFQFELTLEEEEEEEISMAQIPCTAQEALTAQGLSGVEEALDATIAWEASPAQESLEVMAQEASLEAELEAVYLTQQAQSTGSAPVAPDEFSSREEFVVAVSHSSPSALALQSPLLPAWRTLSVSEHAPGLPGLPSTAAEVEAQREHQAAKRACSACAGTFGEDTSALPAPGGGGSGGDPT
UniProt P22061: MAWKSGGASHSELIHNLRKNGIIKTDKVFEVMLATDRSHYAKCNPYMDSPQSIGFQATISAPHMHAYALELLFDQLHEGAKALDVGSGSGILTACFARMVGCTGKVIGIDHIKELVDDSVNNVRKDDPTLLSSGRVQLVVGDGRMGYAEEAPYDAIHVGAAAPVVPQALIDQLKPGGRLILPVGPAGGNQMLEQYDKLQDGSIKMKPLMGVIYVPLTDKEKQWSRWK
UniProt O00408, whole entry, looked up: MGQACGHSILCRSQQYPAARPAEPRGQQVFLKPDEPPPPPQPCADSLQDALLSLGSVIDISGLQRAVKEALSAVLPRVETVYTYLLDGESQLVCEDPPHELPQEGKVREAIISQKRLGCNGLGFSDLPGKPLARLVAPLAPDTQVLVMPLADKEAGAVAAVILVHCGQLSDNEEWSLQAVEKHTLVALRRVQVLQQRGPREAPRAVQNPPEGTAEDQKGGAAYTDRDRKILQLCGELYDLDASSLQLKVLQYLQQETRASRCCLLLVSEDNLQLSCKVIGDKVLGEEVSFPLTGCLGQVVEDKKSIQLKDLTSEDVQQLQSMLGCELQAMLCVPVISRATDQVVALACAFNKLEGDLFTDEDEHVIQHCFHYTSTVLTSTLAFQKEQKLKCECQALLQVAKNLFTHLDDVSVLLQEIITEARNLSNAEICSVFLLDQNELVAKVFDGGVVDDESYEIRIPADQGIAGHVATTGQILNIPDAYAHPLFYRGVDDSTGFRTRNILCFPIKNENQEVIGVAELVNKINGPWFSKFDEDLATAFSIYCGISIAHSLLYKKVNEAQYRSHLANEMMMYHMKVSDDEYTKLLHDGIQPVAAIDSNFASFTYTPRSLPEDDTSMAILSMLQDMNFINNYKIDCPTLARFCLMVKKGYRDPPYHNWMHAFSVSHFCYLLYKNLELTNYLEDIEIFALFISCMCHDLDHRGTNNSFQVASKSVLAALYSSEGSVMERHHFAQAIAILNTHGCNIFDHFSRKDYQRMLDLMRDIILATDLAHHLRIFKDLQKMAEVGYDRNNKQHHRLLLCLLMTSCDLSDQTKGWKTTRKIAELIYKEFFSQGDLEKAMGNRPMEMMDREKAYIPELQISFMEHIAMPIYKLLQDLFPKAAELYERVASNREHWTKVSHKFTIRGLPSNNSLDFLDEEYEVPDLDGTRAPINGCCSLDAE

Legend:
Test in all cases: log2 fold change, soluble protein after heating vs DMSO (PISA); higher = thermal stabilisation; K562 lysate, 10 uM; active = over 0.2 and 3.5 SD of the protein, either way, in both replicates (recomputed)
[1] = compound: C#Cc1cccc(Nc2ncnc3cc(OCCOC)c(OCCOC)cc23)c1 [erlotinib]
Method in brief: (§1)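 Log-two fold change in thermal stability relative to solvent controls is reported from duplicates. For each sample, crude K562 extract from dounce-homogenised pellets in PBS pH 7.4 with 1 mM MgCl2, at 1 mg/mL protein, was treated with 10 μM compound for 30 min. Aliquots heated for 3 min across 48°C-58°C were pooled, brought to 0.5% NP-40 at 4°C and cleared at 21,000xg for 90 min. The supernatant was quantified by TMTpro 16plex LC-MS/MS with channel sums equalised.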

[2] = compound: C/C(=N\NC(=O)C1=CC(=CC=C1)S(=O)(=O)N2CCOCC2)/C3=C(C=CC(=C3)Cl)O
Method in brief: as §1

[3] = compound: C1=CC(=CC=C1C2=NC3=C(N2)C=C(C=C3)C(=O)N)OC4=CC=C(C=C4)Cl
Method in brief: as §1

[4] = compound: C1=CC2=C(C=CC(=C2)/C=C\3/C(=O)NC(=NCC4=CC=CS4)S3)N=C1
Method in brief: as §1

[5] = compound: C1=CC2=NC=CN=C2C=C1/C=C/3\C(=O)NC(=O)S3
Method in brief: as §1

[6] = compound: C1=CC=C(C=C1)C2=NC(=C(N2)C3=CC=NC=C3)C4=CC(=C(C=C4)Cl)O
Method in brief: as §1

[7] = compound: C1=CC=C2C(=C1)C3=NNC4=CC=CC(=C43)C2=O
Method in brief: as §1

[8] = compound: C1CCN(C1)C(=O)NC2=CC=CC(=C2)NC3=NC=C(C(=N3)NCCC4=CN=CN4)Br
Method in brief: as §1

[9] = compound: C1CN(CCC1(CC2=CC=C(C=C2)Cl)N)C3=NC=NC4=C3C=CN4
Method in brief: as §1

[10] = compound: C1COCCN1CCN2C3=CC=CC=C3N=C2NC(=O)C4=CC(=CC=C4)[N+](=O)[O-] [IRAK-1-4 Inhibitor I]
Method in brief: as §1

Measured: log2 fold change

PCYT2 isoform 3 (UniProt Q99447)
inactive: [1] -0.035 | [2] 0.031 | [3] 0.03 | [4] 0.008 | [5] 0.051 | [6] -0.161 | [7] -0.024 | [8] -0.021 | [9] 0.013 | [10] -0.007

PDXP (UniProt Q96GD0)
inactive: [1] -0.014 | [2] 0.008 | [3] 0.002 | [4] -0.013 | [5] 0 | [6] 0.001 | [7] 0.011 | [8] -0.006 | [9] 0.024 | [10] 0.037

PCK2 (UniProt Q16822)
inactive: [1] 0.004 | [2] -0.06 | [3] 0.036 | [4] 0.01 | [5] -0.008 | [6] -0.016 | [7] -0.018 | [8] 0.004 | [9] 0.04 | [10] 0.013

PFDN4 (UniProt Q9NQP4)
inactive: [1] -0.037 | [2] -0.075 | [3] 0.004 | [4] -0.06 | [5] -0.022 | [6] 0.056 | [7] 0.081 | [8] -0.02 | [9] 0.082 | [10] -0.01

PFDN6 (UniProt O15212)
inactive: [1] -0.001 | [2] 0.034 | [3] 0.015 | [4] -0.034 | [5] 0.023 | [6] 0.015 | [7] 0.036 | [8] 0.052 | [9] 0.015 | [10] 0.006

PARP1 (UniProt P09874)
inactive: [1] 0.014 | [2] 0.034 | [3] 0.017 | [4] 0.011 | [5] 0.022 | [6] -0.003 | [7] 0.016 | [8] 0.013 | [9] 0.018 | [10] -0.039

PCBP1 (UniProt Q15365)
inactive: [1] 0.014 | [2] 0.008 | [3] 0.011 | [4] -0.011 | [5] 0 | [6] 0.032 | [7] 0.003 | [8] -0.013 | [9] 0.002 | [10] 0.015

PDXDC1 (UniProt Q6P996)
inactive: [1] -0.012 | [2] 0.008 | [3] -0.095 | [4] 0.034 | [5] 0.013 | [6] -0.005 | [7] 0.024 | [8] -0.011 | [9] -0.024 | [10] -0.006

PFDN1 (UniProt O60925)
inactive: [1] 0.041 | [2] 0.069 | [3] -0.078 | [4] 0.017 | [5] -0.033 | [6] 0.017 | [7] -0.021 | [8] 0.018 | [9] 0.066 | [10] -0.042

PEX13 (UniProt Q92968)
inactive: [1] 0.01 | [2] -0.137 | [3] -0.157 | [4] 0.079 | [5] 0.042 | [6] -0.015 | [7] -0.046 | [8] 0.154 | [9] 0.135 | [10] -0.059

PGGHG (UniProt Q32M88)
inactive: [1] -0.006 | [2] 0.054 | [3] 0.044 | [4] 0.011 | [5] -0.018 | [6] -0.063 | [7] -0.015 | [8] 0.013 | [9] 0.032 | [10] 0.032

PDCD11 (UniProt Q14690)
inactive: [1] 0.045 | [2] 0.195 | [3] 0.011 | [4] 0.04 | [5] -0.054 | [6] -0.019 | [7] -0.051 | [8] -0.011 | [9] 0.016 | [10] -0.016

PARP14 (UniProt Q460N5)
inactive: [1] 0.06 | [2] -0.037 | [3] 0.012 | [4] -0.032 | [5] 0.081 | [6] 0.005 | [7] -0.166 | [8] -0.025 | [9] 0.062 | [10] -0.095

PDCD5 (UniProt O14737)
inactive: [1] -0.038 | [2] 0.017 | [3] -0.014 | [4] -0.034 | [5] 0 | [6] 0.005 | [7] 0.017 | [8] -0.004 | [9] 0.007 | [10] -0.009

PEBP1 (UniProt P30086)
inactive: [1] 0.003 | [2] -0.032 | [3] -0.003 | [4] 0.001 | [5] 0.013 | [6] 0.008 | [7] 0.029 | [8] 0.014 | [9] -0.009 | [10] 0.007

PCIF1 (UniProt Q9H4Z3)
inactive: [1] -0.011 | [2] 0.067 | [3] -0.008 | [4] 0.042 | [5] 0.102 | [6] -0.015 | [7] 0.014 | [8] -0.011 | [9] -0.033 | [10] -0.041

PCBP3 (UniProt P57721)
inactive: [1] 0.005 | [2] 0.028 | [3] 0.021 | [4] -0.031 | [5] 0.02 | [6] 0.02 | [7] 0.029 | [8] -0.003 | [9] 0.021 | [10] -0.005

PDZD8 (UniProt Q8NEN9)
inactive: [1] -0.021 | [2] -0.093 | [3] -0.036 | [4] 0.113 | [5] 0.031 | [6] -0.012 | [7] -0.093 | [8] 0.007 | [9] 0.036 | [10] 0.015

PCCB (UniProt P05166)
inactive: [1] 0.014 | [2] 0.053 | [3] -0.006 | [4] -0.018 | [5] 0.005 | [6] -0.007 | [7] -0.004 | [8] -0.015 | [9] 0.001 | [10] 0.038

PET100 (UniProt P0DJ07)
inactive: [1] 0.027 | [2] 0.01 | [3] 0.056 | [4] -0.041 | [5] -0.056 | [6] 0.005 | [7] 0.003 | [8] 0.034 | [9] -0.12 | [10] -0.093

PCBP2 isoform 3 (UniProt Q15366)
inactive: [1] -0.017 | [2] 0.005 | [3] -0.027 | [4] 0.018 | [5] 0.034 | [6] 0.012 | [7] 0.042 | [8] 0.038 | [9] -0.022 | [10] -0.026

PECAM1 (UniProt P16284)
inactive: [1] 0.049 | [2] 0.066 | [3] 0.016 | [4] 0.083 | [5] -0.068 | [6] 0.016 | [7] 0.064 | [8] 0.003 | [9] 0.067 | [10] 0.045

PCID2 (UniProt Q5JVF3)
inactive: [1] -0.014 | [2] -0.026 | [3] 0.007 | [4] -0.033 | [5] -0.003 | [6] -0.039 | [7] -0.044 | [8] -0.05 | [9] 0.065 | [10] 0.005

PDE4A (UniProt P27815)
inactive: [1] -0.055 | [2] -0.093 | [3] -0.011 | [4] 0.363 | [5] -0.013 | [6] 0.025 | [7] -0.077 | [8] -0.125 | [9] -0.025 | [10] -0.002

PCMT1 isoform 2 (UniProt P22061)
inactive: [1] -0.013 | [2] -0.017 | [3] -0.014 | [4] 0.006 | [5] -0.03 | [6] -0.007 | [7] 0.011 | [8] 0.025 | [9] 0.035 | [10] -0.001

PCYT1A (UniProt P49585)
inactive: [1] -0.021 | [2] -0.01 | [3] -0.003 | [4] -0.009 | [5] -0.006 | [6] -0.003 | [7] 0.003 | [8] 0.012 | [9] -0.012 | [10] 0.009

2 neighbouring records from above, for reference:
PCK2 (UniProt Q16822)
inactive: [1] 0.004 | [2] -0.06 | [3] 0.036 | [4] 0.01 | [5] -0.008 | [6] -0.016 | [7] -0.018 | [8] 0.004 | [9] 0.04 | [10] 0.013

PFDN4 (UniProt Q9NQP4)
inactive: [1] -0.037 | [2] -0.075 | [3] 0.004 | [4] -0.06 | [5] -0.022 | [6] 0.056 | [7] 0.081 | [8] -0.02 | [9] 0.082 | [10] -0.01

(further entries)

PCGF5 (UniProt Q86SE9)
inactive: [1] 0.038 | [2] 0.172 | [3] -0.022 | [4] 0.257 | [5] -0.014 | [6] -0.036 | [7] -0.182 | [8] 0.011 | [9] -0.002 | [10] -0.064

PFN1 (UniProt P07737)
inactive: [1] -0.022 | [2] -0.017 | [3] 0.01 | [4] 0.019 | [5] -0.007 | [6] -0.006 | [7] 0.015 | [8] -0.002 | [9] 0.01 | [10] -0.007

PCBP2 (UniProt F8W0G4)
inactive: [1] -0.117 | [2] -0.36 | [3] -0.007 | [4] -0.102 | [5] 0.022 | [6] 0.005 | [7] -0.236 | [8] -0.241 | [9] 0.079 | [10] 0.093

PDE2A (UniProt O00408)
inactive: [1] -0.015 | [2] 0.082 | [3] 0.12 | [4] -0.337 | [5] -0.055 | [6] 0.249 | [7] -0.257 | [8] 0.001 | [9] -0.027 | [10] 0.18

PFKM isoform 3 (UniProt P08237)
inactive: [1] 0.005 | [2] -0.004 | [3] 0.052 | [4] 0.011 | [5] 0.02 | [6] 0.004 | [7] -0.018 | [8] 0.011 | [9] 0.024 | [10] -0.001

PBK (UniProt Q96KB5)
inactive: [1] 0.012 | [2] 0.026 | [3] -0.044 | [4] 0.014 | [5] -0.014 | [6] 0.008 | [7] -0.001 | [8] -0.007 | [9] -0.011 | [10] -0.007

PATL1 (UniProt Q86TB9)
inactive: [1] 0.02 | [2] 0.038 | [3] 0.056 | [4] 0.024 | [5] -0.057 | [6] -0.041 | [7] -0.039 | [8] -0.034 | [9] -0.029 | [10] 0.035
